This assay has as its target GST-DBD NR4A2 (aa 245-360) (UniProt Q06219). The assay can be described thus: pull-down; GST-DBD NR4A2 on GST beads as bait; equimolar pure FLAG-DNA-PKcs or FLAG-Ku70/Ku80 as prey; 1 hr on ice in 50 mM Tris pH 7.5, 150 mM NaCl, 0.5% Triton X-100, 1 mM DTT; washes with 300 mM NaCl; elution by PreScission cleavage; western blot; both purified. On the technique in general: Immunoblotting shows a protein as a band on a membrane.

Protein sequences, listed by entry. Tags and fused reporters are not part of them.
UniProt P78527: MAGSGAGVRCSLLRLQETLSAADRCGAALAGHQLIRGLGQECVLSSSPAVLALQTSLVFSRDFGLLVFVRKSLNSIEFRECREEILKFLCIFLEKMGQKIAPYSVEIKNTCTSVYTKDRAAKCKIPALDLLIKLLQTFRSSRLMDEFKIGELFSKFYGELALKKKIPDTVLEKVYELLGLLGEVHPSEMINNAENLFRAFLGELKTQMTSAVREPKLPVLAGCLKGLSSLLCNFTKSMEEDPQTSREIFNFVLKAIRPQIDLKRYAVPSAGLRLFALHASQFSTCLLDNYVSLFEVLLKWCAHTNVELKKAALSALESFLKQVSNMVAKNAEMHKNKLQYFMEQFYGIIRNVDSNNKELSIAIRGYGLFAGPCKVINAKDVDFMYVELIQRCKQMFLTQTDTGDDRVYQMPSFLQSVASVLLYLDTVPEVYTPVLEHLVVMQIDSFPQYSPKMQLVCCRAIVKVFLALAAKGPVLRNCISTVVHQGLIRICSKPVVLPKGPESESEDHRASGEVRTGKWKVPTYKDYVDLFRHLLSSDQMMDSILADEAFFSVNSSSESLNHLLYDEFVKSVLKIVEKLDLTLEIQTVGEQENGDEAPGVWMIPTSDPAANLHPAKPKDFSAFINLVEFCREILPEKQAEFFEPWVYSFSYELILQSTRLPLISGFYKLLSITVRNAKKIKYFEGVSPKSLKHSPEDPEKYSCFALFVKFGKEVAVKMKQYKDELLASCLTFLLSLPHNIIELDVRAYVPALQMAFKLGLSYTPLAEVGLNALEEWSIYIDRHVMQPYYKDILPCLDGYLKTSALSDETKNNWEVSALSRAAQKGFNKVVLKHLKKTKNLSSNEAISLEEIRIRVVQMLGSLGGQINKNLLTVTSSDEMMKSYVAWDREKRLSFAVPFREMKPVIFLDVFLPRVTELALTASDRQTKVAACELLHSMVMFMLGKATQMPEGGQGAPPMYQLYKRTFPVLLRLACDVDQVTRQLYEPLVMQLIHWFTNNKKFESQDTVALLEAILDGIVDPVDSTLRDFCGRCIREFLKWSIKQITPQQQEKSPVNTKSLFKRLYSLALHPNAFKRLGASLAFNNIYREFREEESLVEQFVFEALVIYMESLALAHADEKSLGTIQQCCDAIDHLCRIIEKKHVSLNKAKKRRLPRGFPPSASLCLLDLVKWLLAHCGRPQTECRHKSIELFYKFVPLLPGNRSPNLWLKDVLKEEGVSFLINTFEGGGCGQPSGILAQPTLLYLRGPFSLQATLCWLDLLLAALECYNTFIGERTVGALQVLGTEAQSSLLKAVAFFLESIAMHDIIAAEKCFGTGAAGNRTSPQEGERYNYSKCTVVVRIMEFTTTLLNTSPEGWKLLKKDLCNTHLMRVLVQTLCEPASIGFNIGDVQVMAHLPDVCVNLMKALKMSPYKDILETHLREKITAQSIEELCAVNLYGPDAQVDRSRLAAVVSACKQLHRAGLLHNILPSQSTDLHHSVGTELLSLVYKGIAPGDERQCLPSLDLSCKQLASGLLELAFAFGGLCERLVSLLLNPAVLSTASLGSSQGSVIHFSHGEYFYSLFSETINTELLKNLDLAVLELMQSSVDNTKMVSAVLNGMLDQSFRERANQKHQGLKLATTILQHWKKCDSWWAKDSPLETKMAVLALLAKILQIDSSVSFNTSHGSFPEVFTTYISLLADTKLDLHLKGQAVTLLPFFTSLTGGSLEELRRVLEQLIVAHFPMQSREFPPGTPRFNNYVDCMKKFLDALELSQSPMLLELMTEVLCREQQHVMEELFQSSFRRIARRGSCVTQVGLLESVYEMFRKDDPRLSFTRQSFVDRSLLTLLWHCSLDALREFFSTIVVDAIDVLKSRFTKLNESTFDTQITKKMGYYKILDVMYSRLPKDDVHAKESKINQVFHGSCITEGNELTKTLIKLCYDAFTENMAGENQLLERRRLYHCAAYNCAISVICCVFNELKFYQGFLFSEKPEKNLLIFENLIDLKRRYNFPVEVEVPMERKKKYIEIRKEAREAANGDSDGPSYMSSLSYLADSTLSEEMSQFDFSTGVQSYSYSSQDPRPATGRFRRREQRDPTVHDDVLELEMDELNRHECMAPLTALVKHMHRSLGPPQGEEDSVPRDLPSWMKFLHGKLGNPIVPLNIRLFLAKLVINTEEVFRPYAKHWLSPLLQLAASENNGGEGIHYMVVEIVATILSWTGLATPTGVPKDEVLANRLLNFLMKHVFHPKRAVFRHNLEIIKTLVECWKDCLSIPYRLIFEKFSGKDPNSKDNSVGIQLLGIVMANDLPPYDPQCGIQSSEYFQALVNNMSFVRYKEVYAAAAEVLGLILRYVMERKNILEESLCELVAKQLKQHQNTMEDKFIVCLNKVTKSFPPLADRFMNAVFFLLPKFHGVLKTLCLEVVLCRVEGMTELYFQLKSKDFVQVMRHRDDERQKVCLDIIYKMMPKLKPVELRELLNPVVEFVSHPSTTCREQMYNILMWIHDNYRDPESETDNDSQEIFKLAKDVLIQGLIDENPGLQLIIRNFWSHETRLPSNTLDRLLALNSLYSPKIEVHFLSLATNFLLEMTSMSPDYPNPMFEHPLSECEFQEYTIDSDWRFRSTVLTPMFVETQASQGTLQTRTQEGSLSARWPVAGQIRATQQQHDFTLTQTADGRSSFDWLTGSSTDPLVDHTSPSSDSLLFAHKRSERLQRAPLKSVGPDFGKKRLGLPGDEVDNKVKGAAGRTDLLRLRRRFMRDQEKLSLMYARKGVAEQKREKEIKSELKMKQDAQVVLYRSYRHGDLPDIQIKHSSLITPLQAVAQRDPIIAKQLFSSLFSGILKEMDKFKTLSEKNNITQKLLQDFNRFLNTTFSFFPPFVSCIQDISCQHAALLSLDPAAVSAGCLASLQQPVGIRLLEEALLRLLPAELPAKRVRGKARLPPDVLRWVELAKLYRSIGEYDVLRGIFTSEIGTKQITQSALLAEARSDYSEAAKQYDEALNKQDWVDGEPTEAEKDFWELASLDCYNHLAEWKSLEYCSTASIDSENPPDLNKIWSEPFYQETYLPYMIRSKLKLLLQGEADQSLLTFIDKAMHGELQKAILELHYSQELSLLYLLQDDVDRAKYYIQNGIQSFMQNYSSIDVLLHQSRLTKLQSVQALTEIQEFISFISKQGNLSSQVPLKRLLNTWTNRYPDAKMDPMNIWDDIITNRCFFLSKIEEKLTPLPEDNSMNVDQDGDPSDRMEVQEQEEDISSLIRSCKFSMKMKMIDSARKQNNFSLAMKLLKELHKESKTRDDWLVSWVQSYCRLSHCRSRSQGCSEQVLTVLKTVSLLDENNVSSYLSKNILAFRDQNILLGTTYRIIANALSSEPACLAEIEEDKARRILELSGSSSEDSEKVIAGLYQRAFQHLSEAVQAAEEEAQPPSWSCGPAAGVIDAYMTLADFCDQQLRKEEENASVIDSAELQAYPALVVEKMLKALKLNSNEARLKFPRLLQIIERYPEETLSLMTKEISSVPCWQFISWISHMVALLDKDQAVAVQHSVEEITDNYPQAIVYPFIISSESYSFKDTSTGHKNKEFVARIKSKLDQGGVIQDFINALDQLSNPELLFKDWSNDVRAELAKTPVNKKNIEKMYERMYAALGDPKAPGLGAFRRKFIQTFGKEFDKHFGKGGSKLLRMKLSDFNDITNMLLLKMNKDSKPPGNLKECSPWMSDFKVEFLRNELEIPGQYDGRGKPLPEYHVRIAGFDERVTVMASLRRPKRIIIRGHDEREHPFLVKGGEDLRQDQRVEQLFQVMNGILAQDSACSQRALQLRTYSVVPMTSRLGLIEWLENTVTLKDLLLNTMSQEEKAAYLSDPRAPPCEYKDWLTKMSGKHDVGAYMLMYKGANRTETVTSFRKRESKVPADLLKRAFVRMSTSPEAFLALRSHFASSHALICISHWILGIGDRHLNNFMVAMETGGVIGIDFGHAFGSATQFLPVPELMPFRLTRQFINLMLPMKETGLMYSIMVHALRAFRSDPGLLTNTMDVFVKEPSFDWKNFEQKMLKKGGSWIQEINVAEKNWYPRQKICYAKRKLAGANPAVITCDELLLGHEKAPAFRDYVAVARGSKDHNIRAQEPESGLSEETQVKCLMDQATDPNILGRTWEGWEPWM

These are yes or no findings as the source states them, for the method shown. Some binding calls cover weakened binding; strength is not graded here.

Turning to “FLAG-Ku70/Ku80 complex purified from cells treated with IR and PARP inhibitor (no PARylation) (from UniProt P12956 1-609; P13010 1-732)”, the binding result is “binds”.

Regarding “FLAG-DNA-PKcs purified from IR-treated cells (poly-ADP-ribosylated) (from UniProt P78527 1-4128) (enzyme)”, the binding result is listed as “binds”.
